Values quoted from earlier work in patent publication US6417010B1, “Methods and apparatus for synthesizing labeled combinatorial chemistry libraries” (Discovery Partners International, priority 1993, dated 2002).
Some results were stated once for a whole list of compounds, not compound by compound.

Molecular target: Monoclonal antibody 3E7
Details: solution assays, MAb 3E7; read-out: equilibrium binding constants (Kd); cited from earlier work

Substance | Kd [µM]
Pro-Gly-Gly-L-Phe-L-Leu (PGGFL) | > 1000
Pro-L-Pro-Gly-L-Phe-L-Leu (PPGFL) | > 1000
Tyr-Pro-Gly-L-Phe-L-Leu (YPGFL) | > 1000
